# Results from one PubChem assay

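Genome-wide siRNA knockdown in TC32 Ewing sarcoma cells, comparing luciferase light from an NR0B1-promoter reporter with a CMV-promoter reporter 48 hours after transfection. Each siRNA was applied at 20 nM. A z-score of the log NR0B1-over-CMV signal, less the median of siRNAs with the same seed; more negative means a stronger specific loss of the NR0B1 reporter.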

This is part of the screen; most of the strongest results are not listed here. Sequences are the guide (antisense) strand, without overhang.

{"sirna": "UCCCGUAUGCUCUUUCUGC", "target gene": "LINC01446", "seed-corrected z-score": "0.7366"}
{"sirna": "AAACUGAUCCAGGAGUGUA", "target gene": "DLGAP3", "seed-corrected z-score": "-0.9067"}
{"sirna": "AUAUGGUGGUGUAAUAUCC", "target gene": "MTMR6", "seed-corrected z-score": "0.462"}
{"sirna": "UUUUGGUCCGGUGUCUAGC", "target gene": "MMP28", "seed-corrected z-score": "-0.2228"}
{"sirna": "UGCUCUGCGAUGCAGCUGU", "target gene": "IGLL1", "seed-corrected z-score": "-0.559"}
{"sirna": "UUUGUAAAAUGCUGGGCUU", "target gene": "IGF2-AS", "seed-corrected z-score": "0.4477"}
{"sirna": "ACUUGAAUUCGUAUCCAUC", "target gene": "LGALS1", "seed-corrected z-score": "-0.316"}
{"sirna": "UACUAGGACAUUUAUAGAC", "target gene": "OR6N1", "seed-corrected z-score": "0.3241"}
{"sirna": "UUAGUUGUUCAGUUAGAGC", "target gene": "EHMT2", "seed-corrected z-score": "-0.1203"}
{"sirna": "UUUCUCAUACCGCUUCACG", "target gene": "RAP2A", "seed-corrected z-score": "-0.8164"}
{"sirna": "UUAGGAAUAAGAGGACUGC", "target gene": "FADD", "seed-corrected z-score": "0.994"}
{"sirna": "UUUAGACUCACGAUACCAC", "target gene": "MTTP", "seed-corrected z-score": "-0.3036"}
{"sirna": "UCAUCUCAAGGCUUGACUG", "target gene": "ZNF860", "seed-corrected z-score": "-0.05682"}
{"sirna": "UUCUCGAACUUUAAGAGAC", "target gene": "KIF13A", "seed-corrected z-score": "-0.3063"}
{"sirna": "UCAAUGUCAGGAUCGUUGC", "target gene": "PBDC1", "seed-corrected z-score": "-1.992"}
{"sirna": "UUUUAUCUAGCACUGUUUC", "target gene": "SULT1C2", "seed-corrected z-score": "0.07768"}
{"sirna": "AAACUUAUCGUGCAUGCCG", "target gene": "ABHD8", "seed-corrected z-score": "-0.1415"}
{"sirna": "AUCCAUAAGAGUUUGUUUC", "target gene": "LINC00461", "seed-corrected z-score": "0.147"}
{"sirna": "UACUCAAUAACCGCAGCGA", "target gene": "H2AFB2", "seed-corrected z-score": "-0.5115"}
{"sirna": "AAAGCGAUUUCUCUAGAUC", "target gene": "CEP135", "seed-corrected z-score": "0.3146"}
{"sirna": "AAGGUAAUCAUUGUAAGCC", "target gene": "TSPAN2", "seed-corrected z-score": "-0.4314"}
{"sirna": "UCGGGACAUAGUUAAGUGG", "target gene": "OR10AD1", "seed-corrected z-score": "-0.09163"}
{"sirna": "UUCUUUAGUUCUUUGACCC", "target gene": "KIF24", "seed-corrected z-score": "-1.089"}
{"sirna": "AUACUUCGCACAGUCAGCC", "target gene": "RPL13AP6", "seed-corrected z-score": "0.5693"}
{"sirna": "UAAAUUGGGAUGAAAACCC", "target gene": "SLC5A3", "seed-corrected z-score": "-0.1887"}
{"sirna": "UUCACUAUCGUUACUUUUC", "target gene": "RGPD2", "seed-corrected z-score": "0.6896"}
{"sirna": "UUGGUUUUGAGCAGGGACG", "target gene": "RNF39", "seed-corrected z-score": "-0.03465"}
{"sirna": "UCCAUACUUAUUGCGGUCG", "target gene": "IHH", "seed-corrected z-score": "-0.7656"}
{"sirna": "UAAUUGACUAUGAUAAACC", "target gene": "FAM208A", "seed-corrected z-score": "0.6652"}
{"sirna": "AGGGUUAAUAUUCUUUUCC", "target gene": "ELMOD2", "seed-corrected z-score": "1.648"}
{"sirna": "UAUUGUGGUAACUCCAUAC", "target gene": "PTP4A1", "seed-corrected z-score": "0.801"}
{"sirna": "UUCGGUUUGCACAGGAUUG", "target gene": "LMNTD1", "seed-corrected z-score": "0.02391"}
{"sirna": "UGUUACAUCACGGAUCUCC", "target gene": "RUVBL2", "seed-corrected z-score": "-0.07069"}
{"sirna": "UGUUGUGGCGGUUCAUGGC", "target gene": "WNT3A", "seed-corrected z-score": "-1.094"}
{"sirna": "UAACUUACAAACAGCUUUG", "target gene": "TPTE2P1", "seed-corrected z-score": "-1.133"}
{"sirna": "UCUGUUCCUUAAACCGUCC", "target gene": "SEMA6D", "seed-corrected z-score": "0.3297"}
{"sirna": "UGCAGCAUCACACUCUUCA", "target gene": "TNNI2", "seed-corrected z-score": "0.5978"}
{"sirna": "UUAGACACUAUUGGUGUUU", "target gene": "VAPB", "seed-corrected z-score": "-0.1105"}
{"sirna": "AAGGGUAUAAAUGACAGGA", "target gene": "OR4N3P", "seed-corrected z-score": "-1.197"}
{"sirna": "AAAGUAACAGAUGUAGCGG", "target gene": "TMEM14DP", "seed-corrected z-score": "-0.1958"}
{"sirna": "UAAGUAUACAUGACGAUCC", "target gene": "GPRC5C", "seed-corrected z-score": "-0.3719"}
{"sirna": "UUCAAGACUGUAAUGUUGC", "target gene": "CNTD1", "seed-corrected z-score": "0.06919"}

2 of the entries, repeated:

| siRNA | target gene | seed-corrected z-score |
|---|---|---|
| `UAAGUAUACAUGACGAUCC` | GPRC5C | -0.3719 |
| `UCCCGUAUGCUCUUUCUGC` | LINC01446 | 0.7366 |

Source: PubChem BioAssay AID1159506 (NCATS, 2015).